Results from PMC10932164.
Results are given in words; binding and its absence hold for the method and conditions named. In cells and extracts the contact can be indirect. Some results given as binding are weak or reduced against the parent protein; the word gives no strength.

Biological target: Myelin basic protein (MBP), N-terminal flanked with FLAG epitope (UniProt P02686)
Assay: co-IP; HEK 293T cells co-transfected with Strep-Bri2 variant and FLAG-MBP, 48 h; lysis in TNE buffer (50 mM Tris-HCl pH 7.4, 100 mM NaCl, 1 mM EDTA) with 1% octyl beta-D-glucopyranoside; ANTI-FLAG M2 Affinity Gel at 4 °C overnight; eluates immunoblotted

binding | Substance
binds | Bri2 with deletion of the Bri23 peptide (mBri2, mature Bri2) with N-terminal Strep-Tag (from UniProt Q9Y287 1-243) (domain or fragment)
binds | full-length human Bri2 (integral membrane protein 2B, ITM2B) with N-terminal Strep-Tag (from UniProt Q9Y287 1-266)
